Results taken from the supplement of paper PMC5949888.
Most values lie at the floor of the assay. Slopes are relative: functional sequences can read slightly below zero.

System: Saccharomyces cerevisiae PS128 hsf1 delta, HSF1(1-493) fusion
Experiment: growth estimate (transactivation domain function in HSF1 fusion, heat-shock survival) (a.u. (slope of normalised read count over time)); higher = stronger growth at 37°C, i.e. more transactivation activity
Settings: library: random library

Substance | growth estimate
PQLELILVRVAMGPKRRRPR | < -0.25
PRM | < -0.25
CGHRGEKRGTPEPSSGSHRS | < -0.25
TPAGPTNWESMLTAGARWSP | < -0.25
CPLHRELFREPATTLDSSAT | < -0.25
HLAIRRVW | < -0.25
PRW | < -0.25
TISRELEKHTGIRYFSY | -0.25
LHTVSSERPFPPCYT | < -0.25
KKAVHGGPRSVKSAIPVGRQ | < -0.25
FGTCCLEPATSCSPAR | < -0.25
CCNGSRE | < -0.25
ITTNRRSV | < -0.25
RCYGKYAELTANESLRSLTQ | < -0.25
RATFGELNWSFEYRLFG | < -0.25
SGRRTRTIISRLVSFIMWKN | < -0.25
WPMA | < -0.25
CASDTGHCRYETSYST | < -0.25
VGAVVVQQSVKTQLDAENHK | < -0.25
AMCLIGYGFLCLT | < -0.25
IFTV | < -0.25
LGHGVEVSVSVGGIWTSSIY | < -0.25
QEHGRVELACQRSTMLDV | < -0.25

Substance | growth estimate
DYRVD | < -0.25
KQAAR | < -0.25
PVTVKRALCRIAPCSVLSRD | < -0.25
TQLYL | < -0.25
YGQEDIPTPYRISEVGAFYA | < -0.25
EWDNRQLGFETSVRARSGSE | < -0.25
LFGWMRNHD | < -0.25
KRTLMGKRGFKAASELGHLG | < -0.25
ISKAIVAHHLGRQYRNISVG | < -0.25
QLARSEQPNHTVASLQSSAN | < -0.25
PSLMG | < -0.25
GCQTWSLCCFKACCRRGVSV | < -0.25
LDRNGLAGNSVSNILNAYLG | < -0.25
AKLRSVHGWTENVCVPPRS | < -0.25
TVIPSADMSVCRQHGLMLSV | < -0.25
LDESGAF | < -0.25
RLSVRRIMYTIPSASSYDSH | < -0.25
NRPRRVLNRSRMGVTRGTTS | < -0.25
LPVTRKGRISLYLNLRPRRD | < -0.25
LSTSTIYSV | < -0.25
PLASSQKTWGMETGRIHVTW | < -0.25
FAHVPILCPTVTGANIRVL | < -0.25
GCIFSANYPMAIKYG | < -0.25

An excerpt of these results, as a markdown table:

| Substance | growth estimate |
| --- | --- |
| KRTLMGKRGFKAASELGHLG | < -0.25 |
| ISKAIVAHHLGRQYRNISVG | < -0.25 |

Remaining list, next part.

Substance | growth estimate
RLAHFPIERPRGRIIDTLKA | < -0.25
TPRGDVCRYRQYFALG | < -0.25
RINTGGVATGAITKWWPSAP | < -0.25
GYGRGTERAHTAGVIGYHWA | -0.0581
SSFSVPPACLMEYRQAGTCS | < -0.25
FPPQDVFNRGPGQTRA | < -0.25
VGHARLVFVYTLQGPQPHRC | < -0.25
VSMVWESVIVRGIGIICARY | < -0.25
PTCSSAETWMF | < -0.25
FLRIESGICPRSYGTR | < -0.25
PSGRR | < -0.25
QLTSIACC | < -0.25
TRKSTPRRVINYGDLGGRLR | < -0.25
LLVWTNTFGLA | < -0.25
VKYTHVDICLLLSASRNLR | < -0.25
WQVAKLVS | < -0.25
VPKRLRSATYRTLVLRLERC | < -0.25
LRRDWEGSRSGCYSEGLSRS | < -0.25
NLLESTTPRIQLDI | < -0.25
PRLGRFLAKGNWPRLTPC | < -0.25
VRSRAQVTETRIGM | < -0.25
QFTGAYPRGSKVTVTSVA | < -0.25
GCLSGIRRYSCAAFGMGQRA | < -0.25

Substance | growth estimate
RACSQRGGM | < -0.25
TSEIRWMNGELAGKVSSITS | < -0.25
TGP | < -0.25
VCEIATGLRNATKEGSLSVR | < -0.25
VRFKNDLWVRSLQQLDGSGA | < -0.25
LEGRQCNQIFYAW | < -0.25
LDRPTVLWDNTLGEHKGLFL | < -0.25
GRSGVSAPGRA | < -0.25
SKFFAKEIVRTGSGDEMTTR | < -0.25
TALYN | < -0.25
SQQGVVGLDH | < -0.25
TVGGGA | < -0.25
GSHDENWTWGFVYNTLSHFG | 0.0018
AGCVTLGRGKGTQACRNTPC | < -0.25
YILLEVCCISKQVQHVYMVQ | < -0.25
SRHLSGLLNSTYKCRNS | < -0.25
VKGEYQSRSQTNPEYKSYHS | < -0.25
CELSTEGGITPMKAHAQKLC | -0.229
ALSLVLSTPLLVTGDEPRLR | < -0.25
RRKVREGQVRRCLGRQTLAS | < -0.25
HITTPRALLSTS | < -0.25
LVPACVLGISRAVR | < -0.25
APNIASWPCDTISSLYLGPS | < -0.25

A second format for part of the listing above:
RACSQRGGM
  growth estimate = < -0.25
TSEIRWMNGELAGKVSSITS
  growth estimate = < -0.25
TGP
  growth estimate = < -0.25
VCEIATGLRNATKEGSLSVR
  growth estimate = < -0.25

The list goes on.

Substance | growth estimate
ASLVPVETAVSFAP | < -0.25
DCLMNPYAYDLVGGSPSEDI | < -0.25
TCHVTA | < -0.25
RTESRSRSRLHRPDNS | < -0.25
RAVGYDHATVRRTIRWS | < -0.25
ELGSKRLRTISLVIFV | < -0.25
RPRLHLVAPQLSCLWVEVGL | < -0.25
FSAFIVA | -0.246
NVCSEHQEGQFVTRVSRSRA | < -0.25
RVVEGRSRSHLSLPTFSYHP | < -0.25
QVCAITATAGLDL | < -0.25
HEEWTGRAKSRPDLSGQNPS | < -0.25
EST | < -0.25
TPAN | < -0.25
YKWYKRDNGFVVQPRMCVVA | < -0.25
LCFRTFLCSAKIGYANCKDP | < -0.25
LRRGCGSPISYATLATKFLA | < -0.25
PDH | < -0.25
QPSNPNYRERCQGPV | -0.21
LRERVRSEAHTTRVGPCEYK | < -0.25
AMMSPF | < -0.25
PTAP | < -0.25
MSPRRIRGSDL | < -0.25

Substance | growth estimate
RNTVKIAEVSFRITFNPS | < -0.25
GFRPSFLLM | < -0.25
PRSTEGDHAGSFVMHLFIIG | < -0.25
SQREILSLR | < -0.25
AHLTYWVERRQSGCYGKSLC | < -0.25
GPY | < -0.25
GGGLFLMGRYVEFEYDFSGL | < -0.25
YLQCNSPECR | < -0.25
RFWQMCHS | < -0.25
GCPAFIIVGPP | < -0.25
ERMA | < -0.25
SKPRAGYCLLQQDRSPPFGA | < -0.25
LKATYRAYGVRRGEISSLPP | < -0.25
PVSHGMGLVYKYT | < -0.25
EVYTLNKSPGVQANQVSCPH | < -0.25
AAILRWGLLDDDNPAPRPIS | < -0.25
VFDVLGDV | < -0.25
GLEGIYSRENATGRGHMSAA | < -0.25
VWSAYRQGLRVNRAYGVLQR | < -0.25
TVKH | < -0.25
RRAGGGMAPGIPVDKSRN | -0.243
ASKVCYRCRKDSVGGTQ | < -0.25
TRAQNRGAAILTRGSWLEKA | < -0.25

Reprinted at random: three records from the list.
Substance | growth estimate
TVKH | < -0.25
LKATYRAYGVRRGEISSLPP | < -0.25
RNTVKIAEVSFRITFNPS | < -0.25

Next part

Substance | growth estimate
TRELGRLRAG | < -0.25
QSAQLTPRLPFFLRREQRAY | < -0.25
ADVLPSRHSSSCPFTV | < -0.25
RLNINHHGVHFAL | < -0.25
RGNCSEDRHRIGRSRYGREM | < -0.25
NCPYPPDDLSC | < -0.25
LGSIRPSRYLSVAGSALGHV | < -0.25
FQTFLNWAHSGLTSSL | < -0.25
QGVYQVLNESARIDIRLQCL | < -0.25
LLSPTGRDST | < -0.25
QRTGNVSLTP | < -0.25
YHLHYSLRA | < -0.25
IWHVLCVSSPSS | < -0.25
ILGFVAWPAHAPAWLGIVSG | -0.246
ESRSSNRSCCMVRADWDDIG | < -0.25
VKSTSFFLIDSLRFLGTLGI | < -0.25
DSAARGGFLPSGLKRVRPLG | < -0.25
ATVTCYNLMIEEAGALESYG | < -0.25
